Part of at least one peptide drawing is inferred or uncertain, most often the ends. Bridge positions count the residues as written; N and C are the ends. Square brackets hold non-standard residues; d marks the D form. Peptide text beside a SMILES is read from it. S5 = C=CCCC[C@](C)(N)C(=O)O; βAla = NCCC(=O)O
Columns and labels:
[1] = test system: Makona variant of EBOV; format: cell-based, Ebola virus
[2] = format: physicochemical; settings: pH 7

SMILES | antiviral activity (prevention of EBOV infection) [1] | helical propensity (CD spectrum) in water [2]
CC[C@H](C)[C@H](NC(=O)[C@H](CCC(N)=O)NC(=O)[C@H](CC(N)=O)NC(=O)[C@@H](NC(=O)[C@]1(C)CCCC=CCCC[C@](C)(NC(=O)[C@H](CCCCN)NC(=O)[C@@H](NC(=O)[C@H](Cc2c[nH]c3ccccc23)NC(=O)[C@H](CC(=O)O)NC(=O)[C@H](Cc2c[nH]cn2)NC(=O)CCNC(C)=O)[C@@H](C)O)C(=O)N[C@@H]([C@@H](C)CC)C(=O)N[C@@H]([C@@H](C)O)C(=O)N[C@@H](CC(=O)O)C(=O)N1)[C@@H](C)CC)C(=O)N[C@H](C(=O)N[C@@H](Cc1c[nH]cn1)C(=O)N[C@@H](CC(=O)O)C(=O)N[C@@H](Cc1ccccc1)C(=O)N[C@H](C(=O)N[C@@H](CC(N)=O)C(=O)N[C@@H](CCCCN)C(N)=O)C(C)C)[C@@H](C)CC [SEboV-3, HDWTKX1ITDX2INQIIHDFVNK, wherein each of X1 and X2 is (S)-2-(4′-pentenyl)Alanine] (Ac-[βAla]HDWTK[S5]ITD[S5]INQIIHDFVNK-NH2; staple 7-11) | marginal antiviral activity | 
CC[C@H](C)[C@H](NC(=O)[C@H](CCC(N)=O)NC(=O)[C@H](CC(N)=O)NC(=O)[C@@H](NC(=O)[C@]1(C)CCCC=CCCC[C@](C)(NC(=O)[C@H](CCCCN)NC(=O)[C@@H](NC(=O)[C@H](Cc2c[nH]c3ccccc23)NC(=O)[C@H](CC(N)=O)NC(=O)[C@H](Cc2c[nH]cn2)NC(=O)CCNC(C)=O)[C@@H](C)O)C(=O)N[C@@H]([C@@H](C)CC)C(=O)N[C@@H]([C@@H](C)O)C(=O)N[C@@H](CC(N)=O)C(=O)N1)[C@@H](C)CC)C(=O)N[C@H](C(=O)N[C@@H](Cc1c[nH]cn1)C(=O)N[C@@H](CC(=O)O)C(=O)N[C@@H](Cc1ccccc1)C(=O)N[C@H](C(=O)N[C@@H](CC(N)=O)C(=O)N[C@@H](CCCCN)C(N)=O)C(C)C)[C@@H](C)CC [SEboV-9, HNWTKX1ITNX2INQIIHDFVNK, wherein each of X1 and X2 is (S)-2-(4′-pentenyl)Alanine] (Ac-[βAla]HNWTK[S5]ITN[S5]INQIIHDFVNK-NH2; staple 7-11) | displayed antiviral activity | 
CC[C@H](C)[C@H](NC(=O)[C@H](CCCCN)NC(=O)[C@H](CC(=O)O)NC(=O)[C@@H](NC(=O)[C@@H](NC(=O)[C@H](CC(N)=O)NC(=O)[C@H](CCCCN)NC(=O)[C@@H](NC(=O)[C@H](Cc1c[nH]c2ccccc12)NC(=O)[C@H](CC(=O)O)NC(=O)[C@H](Cc1c[nH]cn1)NC(=O)CCNC(C)=O)[C@@H](C)O)[C@@H](C)CC)[C@@H](C)O)C(=O)N[C@@H](CC(=O)O)C(=O)N[C@@H](CCC(N)=O)C(=O)N[C@H](C(=O)N[C@H](C(=O)N[C@@H](Cc1c[nH]cn1)C(=O)N[C@@H](CC(=O)O)C(=O)N[C@@H](Cc1ccccc1)C(=O)N[C@H](C(=O)N[C@@H](CC(=O)O)C(=O)N[C@@H](CCCCN)C(N)=O)C(C)C)[C@@H](C)CC)[C@@H](C)CC [WT EboV, reference compound] | ineffective at preventing infection | unstructured in water
